US9908899B2 (BIOMARIN PHARMACEUTICAL INC., priority 2011, dated 2018)

System: C57BL/6J male mice
Assay: Long term memory for object recognition (ORM)
Assay type: in vivo
Conditions: s.c. 3, 10, 30 mg/kg
Description: C57BL/6J male mice were handled 1-2 min for 5 days and were habituated to the experimental apparatus 5 min a day for 4 consecutive days in the absence of objects. […] 24-h later mice were tested for memory retention (5 min) using the object recognition memory task (ORM), in which a familiar object was replaced with a novel one. All training and testing trials were videotaped and analyzed by individuals blind to the treatment condition and the genotype of subjects. A mouse was scored as exploring an object when its head was oriented toward the object within a distance of 1 cm or when the nose was touching the object. The relative exploration time was recorded and expressed by a discrimination index [DI=(tnovel−tfamiliar)/(tnovel+tfamiliar)×100].

Cc1ccc(C(=O)NCCCCCC(=O)Nc2ccccc2N)cc1 [RGFP 109]
effect of dose on long-term memory for object recognition: Dose dependent effects
